No constants are given. Whether binding was seen depends on the method and setting. For some of these results: Binding seen in cells or lysates may run through a third protein. Some binding calls cover weakened binding; strength is not graded here. For some of these results: Tags and fused reporters may be left off the sequences shown. Blank lines part the entries; values can stand above or below the binder they belong to.
Legend:
[1] = molecular target: T1, ACVR1C (activin receptor type-1C) (human) (UniProt Q8NER5); assay: co-IP with Ha-tagged GREM1 in HCT116 cells, immunoblot (FIG. 3)
T1 sequence (looked up): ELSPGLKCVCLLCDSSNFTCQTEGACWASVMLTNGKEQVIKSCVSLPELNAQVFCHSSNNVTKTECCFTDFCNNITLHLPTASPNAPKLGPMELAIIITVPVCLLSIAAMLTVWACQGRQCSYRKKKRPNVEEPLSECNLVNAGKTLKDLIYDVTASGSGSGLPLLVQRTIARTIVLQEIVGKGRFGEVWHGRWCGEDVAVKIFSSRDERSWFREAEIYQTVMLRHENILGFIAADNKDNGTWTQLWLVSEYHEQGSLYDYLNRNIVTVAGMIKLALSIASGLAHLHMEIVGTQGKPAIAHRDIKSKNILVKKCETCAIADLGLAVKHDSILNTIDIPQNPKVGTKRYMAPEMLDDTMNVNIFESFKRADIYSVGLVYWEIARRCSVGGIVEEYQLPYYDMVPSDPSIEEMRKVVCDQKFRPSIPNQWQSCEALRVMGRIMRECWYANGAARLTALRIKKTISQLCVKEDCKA

[2] = molecular target: T1, ACVR1C (activin receptor type-1C) (human); assay: confocal microscopy, co-localization in SW480 cells (FIG. 5)
Flag-tagged ACVR1C = molecular target: T2, Flag-tagged ACVR1C (UniProt Q8NER5); assay: co-IP with Flag-tagged ACVR1C, immunoblot (FIG. 4)
T2 sequence (looked up): T1 sequence (looked up)

[3] = molecular target: T3, Fc-tagged ACVR1C extracellular domain (ACVR1C-ECD, AA 1-113) (Homo sapiens (Human)) (UniProt Q8NER5); assay: pull-down with purified proteins (FIG. 6)
T3 sequence: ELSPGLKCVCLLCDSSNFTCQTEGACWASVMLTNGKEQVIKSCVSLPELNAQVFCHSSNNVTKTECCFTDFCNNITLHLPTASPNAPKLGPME

- binding [1]: binds
B1: Ha-tagged GREM1 (ligand, not shown: small tags and cut ends)
chain: KKKGSQGAIPPPDKAQHNDSEQTQSPQQPGSRNRGRGQGRGTAMPGEEVLESSQEALHVTERKYLKRDWCKTQPLKQTIHEEGCNSRTIINRFCYGQCNSFYIPRHIRKEEGSFQSCSFCKPKKFTTMMVTLNCPELQPPTKKKRVTRVKQCRCISIDLD

- binding [2]: binds
- binding (Flag-tagged ACVR1C): binds
B2: GREM1 (ligand)
chain: B1 chain

- binding [3]: binds
B3: his-tagged full-length GREM1 (ligand, not shown: small tags and cut ends)
chain: B1 chain

Reference: US20250304621A1, “POLYPEPTIDE FOR SPECIFICALLY BLOCKING BINDING OF ACVR1C TO GREM1 AND USE THEREOF” (The Seventh Affiliated Hospital, Sun Yat-Sen University, priority 2024, published 2025)
